# Results: PubChem BioAssay AID493014 (National Center for Advancing Translational Sciences (NCATS), 2011)
# The list shows a part of the results. These are further read-outs of the screen, such as a control signal, another cell line or another target. No call is given for them. Compounds called inactive in the main read-out are mostly missing here. The note in brackets gives the kind of curve behind each potency; many fits are weak.
# Assay: qHTS Assay to Find Inhibitors of Chronic Active B-Cell Receptor Signaling
# Conditions: ABC-DLBCL IkBa-CBG/CBR reporter, luminescence ratio (green luciferase fused to IkBa over red control in TMD8 lymphoma cells), 4 h
# Procedure, shortened: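 Cell line TMD8 (human ABC DLBCL), stably expressing tet-inducible CBG68-IkBa fusion and CBR; IMDM/0.5% FBS; cpd up to 46 uM; dox induction, 4 h, 37C/5% CO2; dual luminescence; green/red ratio; MG132 control.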
# [1] = measured here: CBR red luminescence, cell number
# [2] = measured here: IkBa-CBG green luminescence
Structure (SMILES),AC50 [1],AC50 [2]
Cn1c(O)c(/C=N/NC(=O)c2cc3ccccc3cc2O)c2ccccc21,"3.98 µM [falling, partial curve]",
CCOC(=O)c1c(C)[nH]c(C)c1S(=O)(=O)N1CCCC(C(=O)N2CCN(c3cccc(Cl)c3)CC2)C1 (stereo unspecified),"3.16 µM [rising, partial curve, poor fit]",
COc1ccc(-c2cc(C3CCN(c4cc(Cl)nc(N)n4)CC3)[nH]n2)cc1,"35.5 µM [falling, single point]",
Cc1cnc(NC(=O)CSc2ncc(-c3ccccc3)n2Cc2ccco2)s1,"23.1 µM [falling, partial curve, poor fit]",
COc1ccc2c3c(cccc13)C(=O)CC2,"10 µM [falling, partial curve, poor fit]",
COc1ccc(C2OC(=O)CC2C(=O)N2CCN(c3cc(Cl)ccc3C)CC2)cc1OC (stereo unspecified),"4.61 µM [falling, single point]",
COc1ccc(OC[C@@H](O)CNC(=O)c2cccc3c2C(=O)c2ccc(-c4ccc(F)cc4OCc4ccccc4)cc2S3(=O)=O)cc1,"5.17 µM [rising, partial curve]",
FC(F)(F)c1cccc(-c2nnc(-c3ccccc3)c(N3CCOCC3)n2)c1,"2.24 µM [rising, partial curve, poor fit]",
CCn1cc(C(=O)OCC(=O)Nc2cccc(S(=O)(=O)N3CCOCC3)c2)c(=O)c2ccc(C)nc21,"4.11 µM [rising, partial curve, poor fit]",
Cc1ccc(Nc2cc(C)nc(NCc3ccccc3)n2)cc1,"29.1 µM [falling, single point]",
CCOc1cc(C(=O)N/N=C/c2ccsc2)cc(OCC)c1OCC,"29.1 µM [rising, single point]","18.4 µM [falling, single point]"
Oc1ccc(NCc2ccccc2OCc2ccccc2)cc1,"10.3 µM [rising, partial curve]","13 µM [falling, partial curve]"
Cc1cccc(NC(=O)c2ccccc2C(=O)O)c1,"4.61 µM [falling, single point]",
COC(=O)c1ccc(C23CC4(C2)[C@H](CN(Cc2ccc(C(F)(F)F)cc2)[C@@H]4c2ccccc2)C3c2ccc(C(F)(F)F)cc2)cc1 (stereo partly specified),"14.1 µM [falling, partial curve, poor fit]",
CSc1ccc(/C=N/Nc2nc(C)cc(=O)[nH]2)cc1,"10 µM [falling, partial curve]",
O=C(CSCc1ccc([N+](=O)[O-])cc1)NC1CCCCCC1,"35.5 µM [falling, single point]",
O=C(COC(=O)COc1cccc(C(F)(F)F)c1)NC1CCCC1,"1.3 µM [rising, full curve, poor fit]",
CCCCn1c(SCC(N)=O)nc2c(sc3ccccc32)c1=O,"0.13 µM [rising, full curve, poor fit]",
CC(C)(C)C(=O)NC(=S)NNC(=O)c1ccc(Cl)cc1Cl,"8.91 µM [rising, partial curve, poor fit]",
CCOC(=O)c1c(CSc2ccccc2)n(C)c2cc(Br)c(O)c(CN(C)C)c12,"11.2 µM [falling, partial curve, poor fit]",
O=C(/C=C/Nc1ccccc1)c1ccccc1,"5.17 µM [falling, partial curve]",

# 4 compounds picked at random from the list so far:
Structure (SMILES),AC50 [1],AC50 [2]
CSc1ccc(/C=N/Nc2nc(C)cc(=O)[nH]2)cc1,"10 µM [falling, partial curve]",
Cc1ccc(Nc2cc(C)nc(NCc3ccccc3)n2)cc1,"29.1 µM [falling, single point]",
Oc1ccc(NCc2ccccc2OCc2ccccc2)cc1,"10.3 µM [rising, partial curve]","13 µM [falling, partial curve]"
O=C(COC(=O)COc1cccc(C(F)(F)F)c1)NC1CCCC1,"1.3 µM [rising, full curve, poor fit]",

# Following part

Structure (SMILES),AC50 [1],AC50 [2]
COc1ccc2[nH]c3c(c2c1)CCN1C(=O)C(CC(=O)NCCc2ccccn2)C[C@H](C(=O)N2CCCCC2)[C@@]31C (stereo partly specified),"13 µM [rising, partial curve, poor fit]",
COc1ccc(C(C)=O)cc1COC(=O)CNC(=O)c1cc(C)cc(C)c1,"13 µM [rising, partial curve, poor fit]",
COc1ccc(/C=N/Nc2nncc3ccccc23)c(OC)c1,"23.1 µM [falling, partial curve]",
Cc1cc(C(=O)NNC(=S)NCC(C)C)cs1,"13 µM [falling, partial curve]",
CCc1ccccc1S(=O)(=O)Cc1ccc(C(=O)N2CCN(c3ccccc3OC)CC2)o1,"0.92 µM [rising, full curve, poor fit]",
Cn1ncc2c(Nc3cccc(C#N)c3)ncnc21,"11.2 µM [falling, single point]",
Nn1c(SCc2ccc(F)cc2)nnc1-c1ccccn1,"7.94 µM [falling, partial curve, poor fit]",
CCCCNC(=O)Nc1nc2ccc(CC)cc2s1,"2 µM [rising, full curve, poor fit]",
COc1ccc(-c2onc(C)c2-c2ccc(C(=O)OC(C)C)o2)c(O)c1,"20.6 µM [falling, partial curve, poor fit]",
COc1ccccc1N(CC(=O)NC1CCCC1)S(=O)(=O)c1ccc(C)cc1,"35.5 µM [falling, single point]",
COc1cc(C(=O)Nc2cc(C(F)(F)F)ccc2-n2cncn2)cc(OC)c1OC,"6.31 µM [rising, single point]",
CCC(C)NCCCCOc1ccc(Cl)cc1C (stereo unspecified),"29.1 µM [falling, single point]",
Oc1ccccc1-c1nc(NCC2CCCO2)c2ccccc2n1 (stereo unspecified),"18.4 µM [falling, partial curve, poor fit]",
CC(=O)Nc1ccc(/C(C)=N/Nc2nc(Nc3cccc4ccccc34)nc(N3CCOCC3)n2)cc1,"20.6 µM [falling, partial curve]",
O=C(Nc1ccc2oc(-c3ccccc3)nc2c1)c1cc(-n2cnnc2)ccc1Cl,"4.47 µM [falling, partial curve]",
O=C(O)c1cccc(OCc2ccccc2Cl)c1,"8.91 µM [falling, partial curve, poor fit]",
O=C(CCC1COc2ccccc2O1)Nc1ccc(Cl)cn1 (stereo unspecified),"29.1 µM [falling, single point]",
COc1ccc(/C=N/OCC(=O)N2CCCC2)c(OC)c1,"35.5 µM [falling, single point]",
CCCNC(=O)c1ccc2c(=O)c(O)c(-c3ccsc3)[nH]c2c1,"3.16 µM [rising, partial curve, poor fit]",
COc1cc(OC)cc(C(=O)Nc2nc3ccc(S(C)(=O)=O)cc3s2)c1,"7.08 µM [falling, full curve]",
CCOc1cccc(OCCOCCN2CCCC2)c1,"18.4 µM [falling, single point]","23.1 µM [rising, partial curve, poor fit]"

Structure (SMILES),AC50 [1],AC50 [2]
COc1ccc([N+](=O)[O-])cc1NC(=O)COC(=O)/C=C/c1ccco1,"5.8 µM [rising, full curve, poor fit]",
CCOC(=O)CNC(=O)C(NC(=O)C1CCC(C)CC1)C(C)CC (stereo unspecified),"0.13 µM [rising, full curve, poor fit]",
Cc1nonc1CN(C)C(=O)c1ccc(OC2CCN(Cc3ccccn3)CC2)cc1,"4.47 µM [falling, full curve, poor fit]",
Cc1ccccc1/C=C/C12NC(=O)CN1c1ccccc1C2(C)C (stereo unspecified),"0.355 µM [rising, full curve]",
CCCCNC(=S)N/N=C/c1cc(C)ccc1C,"25.9 µM [rising, partial curve]",
CCN1CCN(Cc2ccc(NC(=O)c3ccc(C)c(NC(=O)c4ccc5n[nH]nc5c4)c3)cc2C(F)(F)F)CC1,"10 µM [falling, partial curve, poor fit]",
COc1ccc(Cl)cc1NC(=O)NC1CCCCC1,"5.17 µM [rising, full curve]",
Cc1cc(=O)n2[nH]c(-c3ccco3)nc2n1,"5.17 µM [falling, partial curve]",
O=C(N/N=C/c1ccco1)c1[nH]ncc1Br,"11.2 µM [falling, partial curve]",
O=C(N/N=C/c1nn(-c2ccccc2)cc1-c1ccc(Cl)cc1)c1ccncc1,"1.12 µM [rising, full curve, poor fit]",
C/C(=N\NC(=O)c1ccc(NS(=O)(=O)c2cccs2)cc1)c1ccc2ccccc2c1,"9.2 µM [falling, partial curve]",
COc1cc(NS(=O)(=O)c2ccc(Br)cc2)c(OC)cc1NC(=O)c1ccco1,,"7.31 µM [rising, partial curve, poor fit]"
CC1CN=C(N(Cc2ccccc2)C(=O)Nc2ccccc2)S1 (stereo unspecified),"0.517 µM [rising, full curve]",
CCCn1c(C(=O)OC)cc2c1ccn2-c1ccc(F)cc1,"1 µM [rising, full curve]",
Cc1nn(C(C)C(=O)NCCc2cccs2)c(=O)c2nn(-c3ccccc3)c(C)c12 (stereo unspecified),"35.5 µM [rising, single point]",
O=C(Nc1ccc([N+](=O)[O-])cc1)Nc1cnccn1,"6.31 µM [rising, partial curve]",
CCOC(=O)C1=C(C)Nc2nnnn2C1c1ccc(OC)c(Br)c1 (stereo unspecified),,"23.1 µM [falling, partial curve, poor fit]"
Cc1ccc(S(=O)(=O)N2C(=S)SCC2(C)C)cc1,"35.5 µM [rising, single point]",
O=C(NCCc1ccccc1)c1cc(=O)c2ccccc2o1,"35.5 µM [falling, single point]",
Cc1ccc(S(=O)(=O)N/N=C2/CC(c3ccccc3)Oc3ccccc32)cc1 (stereo unspecified),"1.26 µM [rising, full curve, poor fit]",
COC(=O)c1sccc1NC(=O)COc1ccc(Cl)cc1Cl,"0.731 µM [rising, partial curve, poor fit]",
